Assay results from PubChem BioAssay AID540276 (National Center for Advancing Translational Sciences (NCATS), 2011).
Several values for one entry are separate records, joined by “and”; a condition that tells them apart may be missing. Identical values can stand only once. In all, about 300,000 compounds went through this assay and about 5,400 (1.8%) were called active. Inconclusive results, whose numbers are uncertain, are shown with a selection of clear calls. Calls come from the whole dose curve; tested in HEK293 cells. Potencies of inconclusive entries are doubtful fits and often do not repeat.

Test: qHTS for inhibitors of binding or entry into cells for Marburg Virus
Conditions: Marburg virus pseudotyped entry inhibition, cell reporter; series mostly up to 37.8 µM
Potency is the fitted concentration of half-maximal effect.

| Structure (SMILES) | Potency |
| --- | --- |
| CCCn1cnc2c(SCc3ccc(Cl)cc3)nc(N)nc21 | inconclusive: 22.4 µM [inhibitor, single point] |
| CN(C)C=NC(=O)c1cc(C(=O)c2ccc(Cl)cc2Cl)c[nH]1 | inconclusive: 35.5 µM [inhibitor, single point] |
| O=C(/C=C/c1ccc(N2CCCCC2)c([N+](=O)[O-])c1)c1ccc(O)cc1 | inconclusive: 31.6 µM [activator, single point] |
| COCc1cc(=O)[nH]c(SCCS(=O)(=O)c2ccc(C)cc2)n1 | inconclusive: 6.31 µM [activator, partial curve, poor fit] |
| Nc1cc(S(=O)(=O)Nc2ccc(Cl)cc2)ccc1N1CCOCC1 | inconclusive: 9.2 µM [inhibitor, partial curve] |
| CS(=O)(=O)NCCSc1nnnn1-c1ccccc1 | inconclusive: 0.316 µM [inhibitor, partial curve, poor fit] |
| COCCSc1nnc(NS(=O)(=O)c2ccc(F)cc2)s1 | inactive |
| Cc1cc(C)c(S(=O)(=O)N2CCN(c3ccc([N+](=O)[O-])c(NCc4ccco4)c3)CC2)c(C)c1 | inactive |
| O=C1CN(C(=O)COC(=O)c2ccccc2NC(=O)c2ccco2)c2ccccc2N1 | inconclusive: 4.61 µM [inhibitor, partial curve, poor fit] |
| COc1ccc(-n2c(-c3ccc(Cl)cc3)c[n+]3c2CCc2ccccc2-3)cc1 | active: 11.2 µM |
| CCOc1ccccc1-n1c(CNc2ccc(F)cc2)nnc1SCC(=O)NCc1ccco1 | inconclusive: 10 µM [inhibitor, partial curve, poor fit] |
| CN1C(CCl)Nc2cc(Cl)c(S(N)(=O)=O)cc2S1(=O)=O (configuration not stated) | inactive |
| COc1cc(OC)c(OC)cc1CN1CCc2ccccc2C1 | inconclusive: 3.66 µM [inhibitor, full curve] |
| CCOc1nc(NCc2ccco2)nc(Nc2ccccc2F)n1 | inconclusive: 31.6 µM [inhibitor, single point] |
| COc1ccc2c(C)c(Cl)c(=O)oc2c1 | inactive |
| O=C(CCNC(=O)c1ccccc1Cl)Nc1ccc(Br)c(C(F)(F)F)c1 | inactive |
| N#Cc1cccc(NC(=O)CSc2nc3c(cc2C#N)N2CCC3CC2)c1 | inconclusive: 22.4 µM [inhibitor, single point] |
| COc1ccc(C(CNC(=O)CN(C)S(=O)(=O)c2ccc(C)cc2)N2CCCC2)cc1 (configuration not stated) | inconclusive: 15.8 µM [inhibitor, single point] |
| COc1cccc(CN2CCCC(CNC(=O)c3ccc(F)cc3)C2)c1OC (configuration not stated) | inconclusive: 22.4 µM [inhibitor, single point] |
| CCOC(=O)N1CCN(CC(O)COc2ccccc2C(C)C)CC1 (configuration not stated) | inactive |
| C[n+]1c(/C=C/c2ccc3c(c2)OCO3)ccc2ccccc21 | inconclusive: 12.6 µM [activator, partial curve, poor fit] |

| Structure (SMILES) | Potency |
| --- | --- |
| CC(CCN1CCN(c2ccccn2)CC1)c1ccccc1 (configuration not stated) | inconclusive: 2.24 µM [inhibitor, partial curve, poor fit] |
| O=C(CN1C(=O)NC2(CCc3ccccc32)C1=O)NCc1cccc(C(F)(F)F)c1 (configuration not stated) | inconclusive: 11.2 µM [inhibitor, single point] |
| COc1ccc(CNC(=O)c2ccc(C(C)(C)C)cc2)cc1 | inconclusive: 3.16 µM [activator, partial curve, poor fit] |
| Cc1ccc(C(=O)N2CCN(Cc3nc4sc5c(c4c(=O)[nH]3)CCCC5)CC2)cc1 | inconclusive: 35.5 µM [inhibitor, single point] |
| CCC1(C)Cc2ccccc2C(=S)N1 (configuration not stated) | inconclusive: 35.5 µM [inhibitor, single point] |
| Cc1cnccc1CN(C)Cc1cn(C)nc1-c1ccc(Oc2ccccc2)cc1 | inactive |
| CSCC[C@H](CO)NC(=O)OCc1ccccc1 | inconclusive: 14.1 µM [activator, partial curve, poor fit] |
| COc1cccc(CN2CCCC(C(=O)Nc3ccc(-c4cscn4)cc3)C2)c1 (configuration not stated) | inconclusive: 25.1 µM [inhibitor, single point] |
| CC(=O)N1CCN(CC(=O)Nc2c(Cl)ccc(C)c2Cl)CC1 | inconclusive: 0.631 µM [inhibitor, full curve, poor fit] |
| CCN(Cc1ccccc1)C(=O)c1nn(-c2ccc(OC)cc2)c(=O)c2c1c1ccccc1n2C | inconclusive: 31.6 µM [inhibitor, single point] and inconclusive: 11.2 µM [inhibitor, partial curve, poor fit] |
| COc1ccc2cc(C(=O)N3CCN(Cc4ccc5c(c4)OCO5)CC3)[nH]c2c1 | inconclusive: 31.6 µM [inhibitor, single point] |
| COc1ccccc1-n1c(/C=C/c2ccc(O)cc2)nc2ccccc2c1=O | inconclusive: 14.1 µM [inhibitor, partial curve, poor fit] |
| CN(C(=O)COC(=O)c1cc(Br)c(Br)s1)C1CCS(=O)(=O)C1 (configuration not stated) | inconclusive: 5.62 µM [activator, single point] |
| CC(NC(=O)CCSc1nc(-c2ccc3c(c2)OCO3)cc(C(F)(F)F)n1)c1ccccc1 (configuration not stated) | inconclusive: 29.1 µM [inhibitor, single point] |
| CCN(C(=O)CSc1ncccc1C(=O)Oc1cccc([N+](=O)[O-])c1)c1cccc(C)c1 | inactive |
| COc1ccc(CCNC(=O)c2cc(S(=O)(=O)N3CCCCCC3)ccc2OC)cc1OC | inactive |
| N/C(=N\OS(=O)(=O)c1ccc2ccccc2c1)c1ccccn1 | inactive |
| CC1CCc2c(C(=O)Nc3ccc(OC(F)(F)F)cc3)csc2C1 (configuration not stated) | inconclusive: 0.891 µM [activator, partial curve] |
| CCCCN(CC)Cc1ccc(CNC(=S)Nc2c(C)cc(C)cc2C)o1 | inconclusive: 2.82 µM [inhibitor, full curve] |
| CSc1nnc(-c2ccccc2N=Cc2c(C)[nH]n(-c3ccc4ccccc4c3)c2=O)c(=O)[nH]1 | inactive |
| Cc1ccc(NC(=O)COC(=O)Cn2cnc3ccccc32)c(C)c1 | inconclusive: 7.08 µM [inhibitor, partial curve, poor fit] |
